Paper PMC6711988
These are yes or no findings as the source states them, for the method shown. Binding seen in cells or lysates may run through a third protein. These calls come from enrichment with a bait or labelling near it, and not all partners need be listed. For some assays here: A no says only that the protein was not detected with the bait. For some assays here: Tags and fused reporters may be left off the sequences shown. Values belong to the binder of their own block, whether it stands above or below them.

Chains of the proteins cited; added tags and fusions are not shown.
UniProt Q7XZF5: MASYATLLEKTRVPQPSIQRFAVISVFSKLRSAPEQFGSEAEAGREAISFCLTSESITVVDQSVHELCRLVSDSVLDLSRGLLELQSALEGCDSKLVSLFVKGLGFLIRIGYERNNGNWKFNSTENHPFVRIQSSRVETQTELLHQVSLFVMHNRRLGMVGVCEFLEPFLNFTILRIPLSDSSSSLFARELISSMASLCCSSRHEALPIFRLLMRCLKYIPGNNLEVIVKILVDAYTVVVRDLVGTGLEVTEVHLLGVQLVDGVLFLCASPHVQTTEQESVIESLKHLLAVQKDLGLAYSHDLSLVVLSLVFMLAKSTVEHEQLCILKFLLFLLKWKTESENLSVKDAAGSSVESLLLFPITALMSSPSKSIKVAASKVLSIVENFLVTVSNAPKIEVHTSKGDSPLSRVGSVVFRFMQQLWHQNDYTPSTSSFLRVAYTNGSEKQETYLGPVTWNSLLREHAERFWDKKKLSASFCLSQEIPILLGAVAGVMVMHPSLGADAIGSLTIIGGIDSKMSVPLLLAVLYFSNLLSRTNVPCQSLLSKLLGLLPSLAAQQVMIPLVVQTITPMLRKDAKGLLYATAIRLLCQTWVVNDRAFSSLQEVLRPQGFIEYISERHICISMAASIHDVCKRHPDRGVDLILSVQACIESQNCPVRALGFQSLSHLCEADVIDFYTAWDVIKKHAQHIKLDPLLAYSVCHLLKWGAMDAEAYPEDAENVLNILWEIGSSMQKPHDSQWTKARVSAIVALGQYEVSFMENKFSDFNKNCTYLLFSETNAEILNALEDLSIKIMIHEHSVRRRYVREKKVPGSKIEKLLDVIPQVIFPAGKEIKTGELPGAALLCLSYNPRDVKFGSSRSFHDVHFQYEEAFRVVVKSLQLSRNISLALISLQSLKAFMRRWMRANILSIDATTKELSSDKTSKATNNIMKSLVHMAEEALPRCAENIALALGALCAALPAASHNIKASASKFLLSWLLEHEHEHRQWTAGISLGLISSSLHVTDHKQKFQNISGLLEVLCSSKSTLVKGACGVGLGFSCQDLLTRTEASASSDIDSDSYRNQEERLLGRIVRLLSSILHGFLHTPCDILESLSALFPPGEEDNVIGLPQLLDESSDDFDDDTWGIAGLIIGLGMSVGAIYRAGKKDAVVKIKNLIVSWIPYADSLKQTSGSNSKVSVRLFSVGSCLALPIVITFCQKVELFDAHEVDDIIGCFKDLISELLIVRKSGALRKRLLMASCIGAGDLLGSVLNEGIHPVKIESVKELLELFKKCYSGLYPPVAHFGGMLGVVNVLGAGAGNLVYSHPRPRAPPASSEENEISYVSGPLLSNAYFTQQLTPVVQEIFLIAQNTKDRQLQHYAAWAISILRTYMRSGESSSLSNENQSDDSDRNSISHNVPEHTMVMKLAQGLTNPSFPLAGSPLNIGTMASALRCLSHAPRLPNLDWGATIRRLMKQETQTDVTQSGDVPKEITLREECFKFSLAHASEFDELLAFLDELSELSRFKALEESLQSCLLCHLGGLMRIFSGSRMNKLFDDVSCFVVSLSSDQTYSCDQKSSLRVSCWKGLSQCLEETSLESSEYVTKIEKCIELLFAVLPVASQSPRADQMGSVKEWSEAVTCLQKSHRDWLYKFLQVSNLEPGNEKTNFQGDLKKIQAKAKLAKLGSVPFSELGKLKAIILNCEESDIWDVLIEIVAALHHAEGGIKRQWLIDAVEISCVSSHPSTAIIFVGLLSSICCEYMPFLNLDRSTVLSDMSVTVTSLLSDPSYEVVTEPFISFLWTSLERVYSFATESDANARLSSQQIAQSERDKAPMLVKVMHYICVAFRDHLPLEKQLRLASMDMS

Legend:
Test in all cases: affinity purification with mass spectrometry; GFP-tagged bait captured from cleared lysate of Arabidopsis flower buds (50 mM Tris HCl pH 7.5, 25 or 50 mM NaCl, 1% Triton) on magnetic microbeads coupled to GFP antibodies, five washes; eluate analysed by nanoLC-MS/MS; enrichment against 20 control IPs (adjP < 0.05)
[1] = biological target: T1, RRP41-GFP (Arabidopsis thaliana) (UniProt Q9SP08)
T1 sequence: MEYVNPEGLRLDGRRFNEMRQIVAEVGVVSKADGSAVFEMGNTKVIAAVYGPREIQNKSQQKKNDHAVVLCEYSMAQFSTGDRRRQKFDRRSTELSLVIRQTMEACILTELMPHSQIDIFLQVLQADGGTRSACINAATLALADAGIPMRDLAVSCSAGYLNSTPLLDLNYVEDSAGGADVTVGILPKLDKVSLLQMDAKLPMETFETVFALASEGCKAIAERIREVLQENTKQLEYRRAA

[2] = biological target: T2, RRP45A-GFP (Arabidopsis thaliana) (UniProt Q9LDM2)
T2 sequence: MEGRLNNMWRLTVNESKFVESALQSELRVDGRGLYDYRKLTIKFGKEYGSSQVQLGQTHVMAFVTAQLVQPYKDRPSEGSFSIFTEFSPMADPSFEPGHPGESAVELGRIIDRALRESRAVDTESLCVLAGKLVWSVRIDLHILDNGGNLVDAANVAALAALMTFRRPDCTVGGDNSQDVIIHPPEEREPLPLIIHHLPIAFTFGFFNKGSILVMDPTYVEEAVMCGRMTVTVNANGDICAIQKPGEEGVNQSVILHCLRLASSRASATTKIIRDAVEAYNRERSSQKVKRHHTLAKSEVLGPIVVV

[3] = biological target: RESURRECTION1 (RST1) fused to GFP (Arabidopsis thaliana) (UniProt Q7XZF5)
[4] = biological target: T3, RST1 … PROTEIN (RIPR) fused to GFP (Arabidopsis thaliana) (UniProt F4K8S5)
T3 sequence: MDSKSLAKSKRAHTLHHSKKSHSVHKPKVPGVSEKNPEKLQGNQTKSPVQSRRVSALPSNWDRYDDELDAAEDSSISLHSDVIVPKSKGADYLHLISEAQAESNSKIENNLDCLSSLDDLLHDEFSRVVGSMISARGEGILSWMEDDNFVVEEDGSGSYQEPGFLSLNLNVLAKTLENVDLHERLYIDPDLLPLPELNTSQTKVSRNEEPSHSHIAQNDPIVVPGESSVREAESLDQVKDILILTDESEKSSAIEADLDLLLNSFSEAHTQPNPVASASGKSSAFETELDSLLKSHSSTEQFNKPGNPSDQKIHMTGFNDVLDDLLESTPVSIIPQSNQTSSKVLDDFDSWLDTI

B1: RRP44 (enzyme, UniProt Q9SHL7 1-933)
chain: MLQSKVFNKKTRGGRIQKQVREVYLRDDIYCGAFSCKSCDSSAARLSSSKIIVVDTNVVLHQIDLLENKAIDTVVVLSVVLDEVKNRNRSVYNRIRLLCSNPARQFYVFSNHVHKDTYVQAMEKESANDHNDRAIRVATLWYQKHLGDTSQVLLVTNDRENKRKATEEGISAETIEAYVKSLGQPELLDLLAQPTNEDITMEDADDSRPSKRKLIYQEHKPMSEITAGLHRGIYHQGKLRVNRFNPYEAYVGSESIGEEIIIYGRSNMNRAFDGDIVAVELLPRDQWQDEKALSIAEEDDEEDDTVHLAPDNVDDAPRTSNLSHETSGDKNAAPVRPSGRVVGVIRRNWHSYCGSLEPMSLPAGSGGTAHALFVSKDRRIPKIRINTRQLQNLLDMRIVVAVDSWDRQSRYPSGHYVRPIGKIGDKETETEVVLIENDVDYSPFSSQVLACLPPLPWSVSSEDVSNPVRQDLRHLLVFSVDPPGCKDIDDALHCTSLPNGNFELGVHIADVTNFVHPGTPLDDEASKRGTSVYLVERRIDMLPKPLTEDICSLRADVERLAFSVIWEMSPDAEIISTRFTKSIIKSSAALSYIEAQARMDDSRLTDSLTTDLRNMNTLAKIMRQRRIDRGALTLASAEVKFDIDPENHDPLNIGMYQILEANQMVEEFMLAANVSVAGQILKLFPSCSLLRRHPTPTREMLEPLLRTAAAIGLTLDVSSSKALADSLDRAVGEDPYFNKLIRILATRCMTQAVYFCSGDLSPPEYHHYGLAAPLYTHFTSPIRRYADVFVHRLLAASLGIYKLPTVFQDRPQLTSVADNLNYRHRNAQMAGRASVELYVLIYFRTRPTDEEARVVKIRSNGFIVFVPKYGIEGPVYLTGKGEKGAGDWYVDEEKQKIVKMDGSLSYSVLQTVKIHMEVVEPQPNRPKLQLTLL
binding [1]: binds
binding [2]: binds

B2: RRP45A (protein, UniProt Q9LDM2 1-307)
chain: T2 sequence
binding [3]: no binding
binding [1]: binds

B5: MTR4 (protein, UniProt Q9XIF2 1-988)
chain: MGSVKRKSVEESSDSAPPQKVQREDDSTQIINEELVGCVHDVSFPENYVPLAPSVHNKPPAKDFPFTLDSFQSEAIKCLDNGESVMVSAHTSAGKTVVASYAIAMSLKENQRVIYTSPIKALSNQKYRDFKEEFSDVGLMTGDVTIDPNASCLVMTTEILRSMQYKGSEIMREVAWIIFDEVHYMRDSERGVVWEESIVMAPKNSRFVFLSATVPNAKEFADWVAKVHQQPCHIVYTDYRPTPLQHYVFPAGGNGLYLVVDEKSKFHEDSFQKSLNALVPTNESDKKRDNGKFQKGLVIGKLGEESDIFKLVKMIIQRQYDPVILFSFSKKECEALAMQMSKMVLNSDDEKDAVETIFASAIDMLSDDDKKLPQVSNILPILKRGIGVHHSGLLPILKEVIEILFQEGLIKCLFATETFSIGLNMPAKTVVFTNVRKFDGDKFRWLSSGEYIQMSGRAGRRGIDKRGICILMVDEKMEPAVAKSMLKGSADSLNSAFHLSYNMLLNQLRCEEGDPENLLRNSFFQFQADRAIPDLEKQIKSLEEERDSLVIEEEESLKNYYNLILQYKSLKKDIREIVFTPKYCLPFLLPNRAVCLDCTNDDEEPQSFSIEDQDTWGVIMKFNKVKSLSEDDDSRRPEDANYTVDVLTRCMVSKDGVGKKKVKAVPIKERGEPVVVTVPLSQIKSLSSAIMNIPKDLVPLEARENALKKVSELLSRHPDGIPLDPEVDMKIKSSSYKKTVRRLEALENLFEKHKIAKSPLITEKLKVLQMKEELIAKIKSLKKTVRSSTALAFKDELKARKRVLRRLGYITSDNVVELKGKVACEISSAEELTLTELMFSGIFKDAKVEELVSLLSCFVWRERLPDAAKPREELDLLFIQLQDTARRVAEVQLDCKVEIDVESFVQSFRPDIMEAVYAWAKGSKFYEVMEIARVFEGSLIRAIRRMEEVLQQLIVAAKSIGETQLEAKLEEAVSKIKRDIVFAASLYL
binding [3]: no binding
binding [1]: binds

The remaining lines, values ahead:

binding [4]: binds
binding [3]: no binding
B3: SKI2 (protein, UniProt F4JAA5 1-1347)
chain: MNKVEAGNELGFRVGFSGHGGHLRVEPFYTAERDDALNSLPDFVSPPAFAKETKESIKKHIEEKYLIPRLEPDQFSAEKAENQWDFDWFSRVKMPLQPSLPRSVVVPTWELPFRRQKEDTENGAWEPKSVEVDLSEQMYGDQDSGFFPRMVGPPKDFLRGSVNNRPFRPGGLEDSQSSERVLPEGVSSGQWVQELLNGGPAQTVPPSFKQSLDLGDLMPYPQTWSVYEDHSSHGNASDENSSKLSIQFDDLFKKAWEEDTFSELEGDDHTAGSESPKAEAEPDAKASISNEVSKGLETDVTVLDEILSSAKTAIMSEEAVTGSSDKQLRKEGWATKGDSQDIADRFYELVPDMAIEFPFELDNFQKEAICCLEKGESVFVAAHTSAGKTVVAEYAFALATKHCTRAVYTAPIKTISNQKYRDFCGKFDVGLLTGDVSIRPEASCLIMTTEILRSMLYRGADIIRDIEWVIFDEVHYVNDVERGVVWEEVIIMLPRHINFVLLSATVPNTFEFADWIGRTKQKEIRVTGTTKRPVPLEHCLFYSGELYKVCENEVFLSKGIKDAKDSQKKKNSNAVSVAPKQQMGSSAHQDGSKSQKHEAHSRGKQNKHSSVKDVGKSSYSGNSQNNGAFRRSAASNWLLLINKLSKMSLLPVVVFCFSKNYCDRCADALTGTDLTSSSEKSEIRVFCDKAFSRLKGSDRNLPQVLRLQSLLHRGIGVHHAGLLPIVKEVVEMLFCRGVIKVLFSTETFAMGVNAPARTVVFDALRKFDGKEFRQLLPGEYTQMAGRAGRRGLDKTGTVVVMCRDEVPDESDLRRVIVGSATRLESQFRLTYIMILHLLRVEELKVEDMLKRSFAEFHAQKKLPEKQQLLMIKRSLPTKHIECIKGEPAIEDYYDMYMEANEYNNKMSEAVMQSPYAQSFLVQGRVVVMKSGMGIDNLLGIVLKGPSNTNRQYVVLVIKSEIPPPEKNMVSIGKKSSDPSQGYFIAPKSKRGFEEEFYTKPSSRKGPVVIKIELPYHGVAAGVGYEVKGFDNKEFLCICDSKIKIDQVRLLEDGNKAAFSQTVQQLLDLKSDGNKFPPALDPVKDLKLKDAELVETYYKWTNLLQKMSMNKCHGCVKLEEHMKLAREIKKHKTDLKDLEFQMSDEALLQMPAFQGRIDVLKNIGCIDDDLVVQIKGRVACEMNSGEELICTVCLFENQFEELEPEEAVAIMSAFVFQQKNTSAPTLTPKLAKAKQRLYDTAIRLGELQAQYNLQIDPEEYAQENLKFGLVEVVYEWAKGTPFAEICELTDVPEGLIVRTIVRLDETCREFKNAAAIMGNSALHKKMDAASNAIKRDIVFAASLYVTGV

binding [3]: no binding
binding [1]: binds
binding [2]: binds
B4: HEN2 (protein, UniProt Q9ZVW2 1-995)
chain: MSAQMEEPETLGKRKESESSKLRSDETPTPEPRTKRRSLKRACVHEVAVPNDYTPTKEETIHGTLDNPVFNGDMAKTYPFKLDPFQSVSVACLERKESILVSAHTSAGKTAVAEYAIAMAFRDKQRVIYTSPLKALSNQKYRELQHEFKDVGLMTGDVTLSPNASCLVMTTEILRAMLYRGSEVLKEVAWVIFDEIHYMKDRERGVVWEESIIFLPPAIKMVFLSATMSNATEFAEWICYLHKQPCHVVYTDFRPTPLQHYAFPMGGGGLYLVVDDNEQFREDSFVKMQDTFPKPKSNDGKKSANGKSGGRGAKGGGGPGDSDVYKIVKMIMERKFEPVIIFSFSRRECEQHALSMSKLDFNTDEEKEVVEQVFNNAMQCLNEEDRSLPAIELMLPLLQRGIAVHHSGLLPVIKELVELLFQEGLVKALFATETFAMGLNMPAKTVVFTAVKKWDGDSHRYIGSGEYIQMSGRAGRRGKDERGICIIMIDEQMEMNTLRDMMLGKPAPLLSTFRLSYYTILNLLSRAEGQFTAEHVIRHSFHQFQHEKALPDIGNKVSKLEEEAAILNASGEAEVAEYHNLQFDIAKHEKKLMSEIIRPERVLCFLDTGRLVKIREGGTDWGWGVVVNVVKNSSVGTGSASSHGGGYIVDTLLHCSTGFSENGAKPKPCPPRAGEKGEMHVVPVQLPLISALSRLRISVPSDLRPVEARQSILLALQELSSRFPLGFPKLHPVKDMNIQDTEIVDLVSQIEEVEQKLLAHPMHKSEDDQQIKSFQRKAEVNYEIQQLKSKMRDSQLQKFRDELKNRSRVLKKLGHIDADGVVQVKGRAACLIDTGDELLVTELMFNGTFNDLDHHQVAALASCFIPVDKSNEQVNLRNELTKPLQQLQDSARKIAEIQHECKLEIDVEEYVESTIRPFLMDVIYSWSKGASFAEIIQMTDIFEGSIIRSARRLDEFLNQLRAAAEAVGESSLESKFAAASESLRRGIMFANSLYL
